We go through 1 compound from patent publication US8158621B2, “Methods of treating or preventing autoimmune diseases with 2,4-pyrimidinediamine compounds” (Rigel Pharmaceuticals, Inc., priority 2002, dated 2012).

This test concerns Human Jurkat T-cells (clone N). The test can be described thus: Jurkat T-cell activation (anti-TCR, CD69 upregulation). It is filed as cell-based. Here is the method: The screening process took place over three days.
On the first day of the screen, cultured cells were spun down on a centrifuge (1000 rpm, 5 minutes) and resuspended at 3.0×10^5 cells/ml in RPMI+5% FBS. On the second day of the screen, cells were spun down at 1000 rpm for 5 minutes and resuspended in RPMI+5% FBS at 1.3×10^5 cells/ml. 85 μl of this cell suspension were added to the wells of U-bottom 96 well plates (Corning) 85 μl of compound or diluted RPMI+5% FBS (as a control) only was added to each well and incubated at 37° C. for 1 hour. The cells were then stimulated with anti-TCR (C305) at: 500 ng/ml by adding a 8× solution in 25 μl to the plated cells. The cells were then incubated at 37° C. for 20 hrs.
On the third day of the screen, the plates were spun at 2500 RPM for 1 minute on a Beckman GS-6R centrifuge, and the medium was then removed. 50 μl staining solution (1:100 dilution of anti-CD69-APC antibody (Becton Dickenson) in PBS+2% FBS) was then added to each well, followed by incubation of the plates 4 degrees for 20 minutes in the dark. 150 μl of wash buffer (PBS+2% FBS) was then added to each well, and the plates were spun at 3000 RPM for 1 minute. The supernatant was again removed, and the pellet was resuspended by vortexing gently. […] Cells from the plates were read using a flow cytometer coupled to an automated liquid handling system. […]

The compound `COc1ccc(Nc2nc(Cl)ncc2F)c(OC)n1` [Compound R926889] displayed a concentration for half-maximal inhibition (IC50) of more than 10 µM.
